Drawing on paper PMC11807975, “The secreted host-cell protein clusterin interacts with PmpD and promotes Chlamydia trachomatis infection” (Frontiers in Cellular and Infection Microbiology, 2024), this text covers binding for 1 molecule.

For the test, the target named is recombinant D72 (rD72), proteolytically processed fragment of Chlamydia trachomatis serovar E PmpD, residues 68-761, N-terminal 10x His-Tag (Chlamydia trachomatis serovar E (DK-20)) (UniProt O84818). In words: SEC; rD72 in PBS pH 7.4 on Superose 6 Increase 3.2/300, 0.05 ml/min, 4°C; fractions checked by SDS-PAGE; both purified. For orientation: Size exclusion chromatography separates by hydrodynamic size, large species first.

These are yes or no findings as the source states them, for the method shown. Some entries that bind do so weakly or less than the wild type. Sequences can lack the tags named with a protein.

B1: recombinant D72 (rD72), proteolytically processed fragment of Chlamydia trachomatis serovar E PmpD, residues 68-761, N-terminal 10x His-Tag (domain or fragment)
chain: DSQAEGQYRLIVGDPSSFQEKDADTLPGKVEQSTLFSVTNPVVFQGVDQQDQVSSQGLICSFTSSNLDSPRDGESFLGIAFVGDSSKAGITLTDVKASLSGAALYSTEDLIFEKIKGGLEFASCSSLEQGGACAAQSILIHDCQGLQVKHCTTAVNAEGSSANDHLGFGGGAFFVTGSLSGEKSLYMPAGDMVVANCDGAISFEGNSANFANGGAIAASGKVLFVANDKKTSFIENRALSGGAIAASSDIAFQNCAELVFKGNCAIGTEDKGSLGGGAISSLGTVLLQGNHGITCDKNESASQGGAIFGKNCQISDNEGPVVFRDSTACLGGGAIAAQEIVSIQNNQAGISFEGGKASFGGGIACGSFSSAGGASVLGTIDISKNLGAISFSRTLCTTSDLGQMEYQGGGALFGENISLSENAGVLTFKDNIVKTFASNGKILGGGAILATGKVEITNNSEGISFTGNARAPQALPTQEEFPLFSKKEGRPLSSGYSGGGAILGREVAILHNAAVVFEQNRLQCSEEEATLLGCCGGGAVHGMDSTSIVGNSSVRFGNNYAMGQGVSGGALLSKTVQLAGNGSVDFSRNIASLGGGALQASEGNCELVDNGYVLFRDNRGRVYGGAISCLRGDVVISGNKGRVEFKDNIATRLYVEETVEKVEEVEPAPEQKDNNELSFLGRAEQSFITAANQA
notes: In solution a high-molecular-weight oligomer (720-1048 kDa by Blue Native-PAGE, calculated 10- to 15-mer); also called rPmpD; His-PmpD; source: E. coli Origami, purified (Ni-NTA agarose, dialysed in PBS); not shown: 10xHis, N-terminal, kept; copies: 10-15
For B1, the binding result is given as “binds”.
